Measurements as given in article PMC5362411.
These are yes or no findings as the source states them, for the method shown. In cells and extracts the contact can be indirect. Some results given as binding are weak or reduced against the parent protein; the word gives no strength.

Protein sequences, listed by entry. Tags and fused reporters are not part of them.
UniProt Q96DH6: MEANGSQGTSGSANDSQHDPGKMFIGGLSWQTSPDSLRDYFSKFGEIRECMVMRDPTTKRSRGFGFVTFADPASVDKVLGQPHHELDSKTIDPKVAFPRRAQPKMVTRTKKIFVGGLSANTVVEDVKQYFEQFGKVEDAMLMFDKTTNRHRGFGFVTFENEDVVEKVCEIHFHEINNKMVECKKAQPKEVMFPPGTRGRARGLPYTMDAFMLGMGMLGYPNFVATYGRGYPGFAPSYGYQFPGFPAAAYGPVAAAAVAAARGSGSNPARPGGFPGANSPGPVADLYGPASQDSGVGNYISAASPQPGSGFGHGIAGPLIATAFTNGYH

Biological target: T1, Numb (human (endogenous in Capan-2, PANC-1, BxPC-3)) (UniProt P49757)
T1 sequence: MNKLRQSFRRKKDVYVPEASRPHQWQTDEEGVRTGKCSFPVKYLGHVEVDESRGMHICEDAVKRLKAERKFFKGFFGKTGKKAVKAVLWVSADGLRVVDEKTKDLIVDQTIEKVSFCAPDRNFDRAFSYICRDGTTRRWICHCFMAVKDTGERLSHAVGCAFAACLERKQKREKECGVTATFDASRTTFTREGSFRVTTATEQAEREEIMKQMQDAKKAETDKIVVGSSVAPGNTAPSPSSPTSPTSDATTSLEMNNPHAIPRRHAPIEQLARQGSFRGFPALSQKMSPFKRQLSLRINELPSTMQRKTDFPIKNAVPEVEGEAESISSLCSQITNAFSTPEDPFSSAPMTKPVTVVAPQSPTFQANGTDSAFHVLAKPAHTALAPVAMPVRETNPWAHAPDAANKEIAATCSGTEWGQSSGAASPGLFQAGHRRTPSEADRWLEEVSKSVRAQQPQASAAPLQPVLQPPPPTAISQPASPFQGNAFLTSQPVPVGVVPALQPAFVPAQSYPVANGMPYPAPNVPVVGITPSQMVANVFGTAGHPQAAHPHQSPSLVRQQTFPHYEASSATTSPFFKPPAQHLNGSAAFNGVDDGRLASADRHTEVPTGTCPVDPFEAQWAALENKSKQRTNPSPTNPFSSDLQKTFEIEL
Assay: co-IP; lysates of Capan-2, PANC-1 and BxPC-3 cells (20 mM Tris/HCl pH 7.4, 1.0% NP-40, 1 mM EDTA, 150 mM NaCl); Numb antibody overnight at 4°C, protein A-Sepharose 4B, washed three times with lysis buffer, immunoblot with MSI2 antibody

## Musashi2 (from UniProt Q96DH6 1-328)
  binding: binds
